Results reported in the supplement of paper PMC9233669.
Variants at the background level are over-represented here.

How the values were obtained:
[1] = tested on: biotinyl-Ile-oxazolone; assay: self-aminoacylation, catalytic enhancement (BIO) (fold over background); higher = more active; k-Seq, kA / k0A0; sequences stand for … in GGGAAUGGAUCCACAUCUACGAAUUC…UUCACUGCAGACUUGACGAAGCUG
Outline: (§1)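 Mutagenized RNA pools with a 21-nt variable region (0.43 μM) reacted with each biotinyl-aminoacyl-oxazolone at 2–1250 μM. Reactions ran in 50 μL HEPES/NaCl/KCl/MgCl2/CaCl2 buffer with 5% acetonitrile, pH 6.9–7.0, for 90 minutes at room temperature. Streptavidin-captured RNA was quantified by triplicate qPCR and Illumina sequencing, and per-sequence fraction reacted was fit to a pseudo-first-order model with 1000 bootstraps. Catalytic enhancement is median kA divided by the uncatalyzed rate, the low-activity peak of a bimodal Gaussian fit.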

[2] = tested on: biotinyl-Val-oxazolone; assay: self-aminoacylation, catalytic enhancement (BVO) (fold over background); higher = more active; k-Seq, kA / k0A0; sequences stand for … in GGGAAUGGAUCCACAUCUACGAAUUC…UUCACUGCAGACUUGACGAAGCUG
Outline: as §1

[3] = tested on: biotinyl-Leu-oxazolone; assay: self-aminoacylation, catalytic enhancement (BLO) (fold over background); higher = more active; k-Seq, kA / k0A0; sequences stand for … in GGGAAUGGAUCCACAUCUACGAAUUC…UUCACUGCAGACUUGACGAAGCUG
Outline: as §1

[4] = tested on: biotinyl-Met-oxazolone; assay: self-aminoacylation, catalytic enhancement (BMO) (fold over background); higher = more active; k-Seq, kA / k0A0; sequences stand for … in GGGAAUGGAUCCACAUCUACGAAUUC…UUCACUGCAGACUUGACGAAGCUG
Outline: as §1

Sequence	self-aminoacylation [1]	self-aminoacylation [2]	self-aminoacylation [3]	self-aminoacylation [4]
AACUUUGCUAAUGGUCGCAAG [Fam3.1 aminoacylation ribozyme variant]	2.47			
AAGAAUGCUAAUAGUCGCAAG [Fam3.1 aminoacylation ribozyme variant]	1.89	1.4	1.34	
AAGAUUGCUAAUGGUCGCAAG [Fam3.1 aminoacylation ribozyme variant]	1.21			
AAGUUCGCCAAUAGUCGCAAG [Fam3.1 aminoacylation ribozyme variant]		1.76		
AAGUUUGCCAAUAGUCGCAGG [Fam3.1 aminoacylation ribozyme variant]	1.94			
AAGUUUGCUAAUAGACGCGAG [Fam3.1 aminoacylation ribozyme variant]	0.793	0.64		0.912
AAGUUUGCUAAUAGUCGCGUG [Fam3.1 aminoacylation ribozyme variant]	1.82	1.87		
AAGUUUGCUCAUAGUGGCAAG [Fam3.1 aminoacylation ribozyme variant]	0.71	0.774		0.618
ACCUUUGCUAAUAGUCGCAAG [Fam3.1 aminoacylation ribozyme variant]	1.89	1.49		1.97
ACGUCUGCUAAUAGUCGCAAG [Fam3.1 aminoacylation ribozyme variant]		1.81	1.57	
ACGUUUGCUAAAAGUCGCAAG [Fam3.1 aminoacylation ribozyme variant]	1.61	1.78	1.58	
ACUACCCUGGUCAUCGAGGGA [Fam2.1 aminoacylation ribozyme variant]		1.84		
AGGUUUGCUAAUAGUCGUAAG [Fam3.1 aminoacylation ribozyme variant]	1.22	1.08		1.23
AGUCACCUAGGUCAUCUGGUG [Fam2.2 aminoacylation ribozyme variant]	1.91	1.57		
AUAACCCUGGUCAUCGAGUAA [Fam2.1 aminoacylation ribozyme variant]	1.95	1.77		
AUCACCCUGGUCAUCGAGGGA [Fam2.1 aminoacylation ribozyme variant]	1.47			
AUCCACCUAGGUCCUCGGGUG [Fam2.2 aminoacylation ribozyme variant]	3.76	4.71		6.2
AUGCACCUAGGUCAUCGAGUG [Fam2.2 aminoacylation ribozyme variant]	2.61	2.56		
AUUACCCUCGUCAUGGAGUGA [Fam2.1 aminoacylation ribozyme variant]	1.84	1.84		

Sequence	self-aminoacylation [1]	self-aminoacylation [2]	self-aminoacylation [3]	self-aminoacylation [4]
AUUACCCUGGACAUCAAGUGA [Fam2.1 aminoacylation ribozyme variant]	1.38	1.85		
AUUACCCUGGUAAUCGUGUGA [Fam2.1 aminoacylation ribozyme variant]	1.69	1.85		
AUUACGCUCGUCAUCGAGUGA [Fam2.1 aminoacylation ribozyme variant]	1.65	1.69		
AUUACGCUGGUCAUCAAGUGA [Fam2.1 aminoacylation ribozyme variant]	1.84	1.8		2.63
AUUACUCUGGUCAUCAAGUGA [Fam2.1 aminoacylation ribozyme variant]	1.69	1.64		
AUUCACAUACGUCAUCGGGUG [Fam2.2 aminoacylation ribozyme variant]	4.62	4.19		7.22
AUUCACCAAGGUCAUCGGAUG [Fam2.2 aminoacylation ribozyme variant]	1.09	1.17		
AUUCACCCAGGUCAUAGGGUG [Fam2.2 aminoacylation ribozyme variant]	1.54	1.61		1.66
AUUCACCUAGGUCAUCUGCUG [Fam2.2 aminoacylation ribozyme variant]	0.819	0.81		0.724
AUUCACCUAGGUUAUCGGGGG [Fam2.2 aminoacylation ribozyme variant]	1.85			1.59
AUUCACCUAGUUCAUCCGGUG [Fam2.2 aminoacylation ribozyme variant]	3.1	2.52		
AUUCACUUAGGUCAGCGGGUG [Fam2.2 aminoacylation ribozyme variant]		1.98		
AUUCGCCUAGGUCAUCGAGUG [Fam2.2 aminoacylation ribozyme variant]	8.77	7.39		
AUUUCCCUGGUCAUCGAAUGA [Fam2.1 aminoacylation ribozyme variant]	1.09	1.12		
AUUUCCCUGGUCAUCGUGUGA [Fam2.1 aminoacylation ribozyme variant]	1.82	1.97		
CAACUUCAAACAAGCGGUCUG [Fam1A.1 aminoacylation ribozyme variant]	1.42	1		1.24
CAACUUCAAACAAUCGGUCUU [Fam1A.1 aminoacylation ribozyme variant]	1.59	1.5		
CAGCUUCAAACAAUCGGUCUG [Fam1A.1 aminoacylation ribozyme variant]	1.47	1.38		1.32
CCACGCUUCAAGCAAUCCGUC [Fam1B.1 aminoacylation ribozyme variant]	0.754	1.1		0.507

Sequence	self-aminoacylation [1]	self-aminoacylation [2]	self-aminoacylation [3]	self-aminoacylation [4]
CCAUGCUUCAAGCAAUCGGUC [Fam1B.1 aminoacylation ribozyme variant]	1.34	1.4		1.54
CCCCACUUCAAGCAGUCGGUC [Fam1B.1 aminoacylation ribozyme variant]	1.9			1.77
CCCCGCUUCAAGCAAUCGGUC [Fam1B.1 aminoacylation ribozyme variant]	1.96			
CCGCACUUCAAGCAAUCGGUC [Fam1B.1 aminoacylation ribozyme variant]	1.3	1.69		1.37
CCGCACUUCAAGCAAUCGGUU [Fam1B.1 aminoacylation ribozyme variant]	1.96			1.92
CCGCCCUUCAAGCAAUCGGUC [Fam1B.1 aminoacylation ribozyme variant]	1.51			1.43
CCUCUUCAAACAAUCGGUCUG [Fam1A.1 aminoacylation ribozyme variant]	1.33	1.2		1.65
CGUCUUCAAACAAUCGGUCUG [Fam1A.1 aminoacylation ribozyme variant]	1.32	1.42		1.62
CUACUUCAAACAAUCGCUCCG [Fam1A.1 aminoacylation ribozyme variant]	0.768	0.926		
CUACUUCAAGCAAUCGGUCUU [Fam1A.1 aminoacylation ribozyme variant]	1.07	1.06		0.87
CUUCACCUAGAUCAUCGGGUG [Fam2.2 aminoacylation ribozyme variant]	1.54			
CUUCUUCAAACAACCGGUCUG [Fam1A.1 aminoacylation ribozyme variant]	1.11	0.949		
GAGUUGGCUAAUAGUCGCAAG [Fam3.1 aminoacylation ribozyme variant]			1.69	
GUUCACCUAGGUCAACGGGUG [Fam2.2 aminoacylation ribozyme variant]	1.94	1.89		
UAGUUUGCUAAUAGUCGCUAG [Fam3.1 aminoacylation ribozyme variant]	1.18	1.13		1.01
UCAGACUUCAAGCAAUCGGUC [Fam1B.1 aminoacylation ribozyme variant]	1.59	1.74		1.9
UUACUUCAAACAAUCGGUCGG [Fam1A.1 aminoacylation ribozyme variant]	1.47	1.43		1.53
UUUCACCUAGGUAAUCGGGUG [Fam2.2 aminoacylation ribozyme variant]		1.98		
UUUCACCUAGGUCUUCGGGUG [Fam2.2 aminoacylation ribozyme variant]	4.04	4.51		4.63
